The target of the assay is Flag-tagged wild-type Cdc42 (human) (UniProt P60953). Put plainly: co-IP; Flag-tagged Cdc42 precipitated from HEK293 lysate on anti-Flag M2-agarose (co-IP buffer, 4 °C, 90 min), Western blot; for the effectors cells were in serum-free medium overnight, then basal or given 10 ng/ml EGF or 50 ng/ml PMA for 2 min.

Protein sequences, listed by entry. Tags and fused reporters are not part of them.
UniProt P60953: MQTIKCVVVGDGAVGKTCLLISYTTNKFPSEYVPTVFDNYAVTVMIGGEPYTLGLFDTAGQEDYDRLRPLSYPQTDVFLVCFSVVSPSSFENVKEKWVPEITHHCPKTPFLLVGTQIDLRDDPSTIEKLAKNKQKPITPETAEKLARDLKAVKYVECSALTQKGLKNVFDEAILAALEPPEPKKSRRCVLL
UniProt O00401: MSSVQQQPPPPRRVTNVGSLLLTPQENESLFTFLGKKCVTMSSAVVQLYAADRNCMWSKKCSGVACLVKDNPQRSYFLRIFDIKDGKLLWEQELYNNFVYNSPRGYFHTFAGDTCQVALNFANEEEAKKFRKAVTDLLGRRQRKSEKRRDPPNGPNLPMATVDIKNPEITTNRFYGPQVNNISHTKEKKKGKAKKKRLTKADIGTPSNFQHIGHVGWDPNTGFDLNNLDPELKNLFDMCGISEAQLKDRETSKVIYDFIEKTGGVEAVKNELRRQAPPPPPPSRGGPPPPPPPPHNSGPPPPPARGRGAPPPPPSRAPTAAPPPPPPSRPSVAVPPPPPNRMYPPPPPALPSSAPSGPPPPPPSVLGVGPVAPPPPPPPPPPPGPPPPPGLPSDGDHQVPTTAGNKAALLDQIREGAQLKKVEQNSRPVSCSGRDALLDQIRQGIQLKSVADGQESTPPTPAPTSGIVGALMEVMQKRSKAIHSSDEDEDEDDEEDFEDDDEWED

No constants are given. Whether binding was seen depends on the method and setting. Binding seen in cells or lysates may run through a third protein. Some results given as binding are weak or reduced against the parent protein; the word gives no strength.

As for N-WASP (from UniProt O00401 1-505), the binding entry was “binds”.

Source of the values: PMC8429552.
